Data taken from PubChem BioAssay AID504842 (National Center for Advancing Translational Sciences (NCATS), 2011).
Among all 330,000 compounds or so, about 100 (0.03%) were called active. This list was built around the results that the source calls inconclusive (neither active nor inactive); the mix of calls is not that of the screen. Calls come from the whole dose curve; as a rule, active = well fitted inhibition curve with a large enough effect; inconclusive = small, poorly fitted or top-dose-only effect; inactive = flat fitted curve, though single readings scatter. Potencies of inconclusive entries are doubtful fits and often do not repeat.

These molecules were tested on Chaperonin Mm-Cpn (Methanococcus maripaludis) (assay: Inhibitors of TCP-1 ring complex (TRiC) of Methanococcus maripaludis (MmCpn): qHTS). Conditions: purified Mm-Cpn ATPase, ADP Transcreener TR-FRET; series mostly up to 76.9 µM; activity, negative = inhibition: at the top concentration.
Outline: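 Purified archaeal Mm-CPN (25nM final) preincubated 10 min at 37degC with compound, then 10uM ATP for 30 min at 37degC; ADP measured by HTRF Transcreener TR-FRET; buffer 30 mM TRIS pH 7.4, 100mM KCl, 5mM MgCl2, 1mM DTT.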
% is set by controls: 0 for no effect and ±100 for the full control effect; potency is the fitted concentration of half-maximal effect.
Note: nearly all actives have a fitted effect of over 80% in size.
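Throughout, for Potency: enzyme at 25 nM with ATP substrate at 10 µM during the reaction.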

Compound	Potency	activity, negative = inhibition
O=C(CCc1ccc(S(=O)(=O)N2CCOCC2)cc1)Nc1cc(Cl)ccc1N1CCOCC1	inconclusive: 89.1 µM [inhibitor, single point]	–
COC(=O)C1=C(C)N(C)C(C)=C(C(=O)OC)C1c1ccc(C(=O)OC)cc1	–	inactive: 2.21%
O=C(CN1C(=O)NC2(CCCCCC2)C1=O)c1ccc2c(c1)OCCO2	–	inactive: -0.502%
CC(CC(=O)Nc1ccncc1)c1ccccc1 (stereo not given)	–	inactive: -0.602%
CCOC(=O)C1CCN(C(=O)CN2C(=O)c3cccnc3Oc3ccccc32)CC1	inconclusive: 22.4 µM [inhibitor, single point]	–
COc1ccc(Oc2nc(C)nc3c2oc2ccccc23)cc1	inconclusive: 14.1 µM [inhibitor, partial curve, poor fit]	–
CC(=O)c1ccc(NC(=O)COC(=O)C2CC3C=CC2C3)cc1 (stereo not given)	inconclusive: 100 µM [inhibitor, single point]	–
S=C(N/N=C/c1ccccc1Cl)Nc1ccccc1	–	inactive: -14.6%
O=C(C(=O)N1CCN(c2ccc(F)cc2)CC1)c1cn(CC(=O)N2CCOCC2)c2ccccc12	inconclusive: 22.4 µM [inhibitor, single point]	–
Cn1c(CN2CCOCC2)nnc1SCC(=O)Nc1cc(Cl)ccc1Cl	inconclusive: 10 µM [inhibitor, single point]	–
CC(c1ccccc1)C1CC(=O)N(c2ccc(C(=O)O)cc2)C1=O (stereo not given)	inconclusive: 14.1 µM [inhibitor, single point]	–
O=C(O)CCNc1ccc(NCCC(=O)O)c2c1C(=O)c1ccccc1C2=O	active: 44.7 µM	–
Cc1ccc(-c2ccc3nnc(SCC(N)=O)n3n2)cc1	inconclusive: 89.1 µM [inhibitor, single point]	–
Cc1c(C(=O)NCc2cccnc2)oc2ccc(S(=O)(=O)N3CCC4(CC3)OCCO4)cc12	–	inactive: 0.331%
O=C(O)CCCNc1cc(N2CCC3(CC2)OCCO3)c2noc3c2c1C(=O)c1ccccc1-3	inconclusive: 178 µM [inhibitor, partial curve]	–
COc1ccc(-c2c(C#Cc3ccsc3)c3cc(-c4ccc5[nH]ccc5c4)ccc3n2C)cc1	inconclusive: 141 µM [inhibitor, partial curve, poor fit]	–
COC(=O)CSc1nc(C)c(C(=O)Nc2ccccc2C)c(-c2ccc(Cl)cc2)c1C#N	inconclusive: 79.4 µM [inhibitor, single point]	–
COc1ccc(/C(C)=N/OCC(=O)N=Nc2c(O)[nH]c3ccccc23)cc1	inconclusive: 20 µM [inhibitor, single point]	–
COC(=O)c1sc(N2C(=O)C(O)=C(C(=O)c3ccc(C)o3)C2c2cccs2)nc1C (stereo not given)	inconclusive: 100 µM [inhibitor, single point]	–
COC(=O)c1cc(OC)c(OC)cc1NC(=S)Nc1cccc(Cl)c1	–	inactive: -0.939%
CC(=O)N1N=C(c2ccc(Br)cc2)CC1c1cn(C)c2ccccc12 (stereo not given)	inconclusive: 158 µM [inhibitor, partial curve, poor fit]	–
COc1ccccc1NS(=O)(=O)c1cc(N2Cc3ccccc3C2=N)ccc1N1CCOCC1	–	inactive: -1.93%
Cc1cc(-c2ccccc2)n2nc(N)nc2n1	inconclusive: 14.1 µM [inhibitor, single point]	–
O=C1N[C@@H](Cc2ccccc2)[C@@H](c2ccco2)O1	inconclusive: 22.4 µM [inhibitor, single point]	–

A portion from the list above, for reference:
Compound	Potency	activity, negative = inhibition
CC(=O)c1ccc(NC(=O)COC(=O)C2CC3C=CC2C3)cc1 (stereo not given)	inconclusive: 100 µM [inhibitor, single point]	–
S=C(N/N=C/c1ccccc1Cl)Nc1ccccc1	–	inactive: -14.6%
O=C(C(=O)N1CCN(c2ccc(F)cc2)CC1)c1cn(CC(=O)N2CCOCC2)c2ccccc12	inconclusive: 22.4 µM [inhibitor, single point]	–
Cn1c(CN2CCOCC2)nnc1SCC(=O)Nc1cc(Cl)ccc1Cl	inconclusive: 10 µM [inhibitor, single point]	–
CC(c1ccccc1)C1CC(=O)N(c2ccc(C(=O)O)cc2)C1=O (stereo not given)	inconclusive: 14.1 µM [inhibitor, single point]	–
O=C(O)CCNc1ccc(NCCC(=O)O)c2c1C(=O)c1ccccc1C2=O	active: 44.7 µM	–
Cc1ccc(-c2ccc3nnc(SCC(N)=O)n3n2)cc1	inconclusive: 89.1 µM [inhibitor, single point]	–
Cc1c(C(=O)NCc2cccnc2)oc2ccc(S(=O)(=O)N3CCC4(CC3)OCCO4)cc12	–	inactive: 0.331%
O=C(O)CCCNc1cc(N2CCC3(CC2)OCCO3)c2noc3c2c1C(=O)c1ccccc1-3	inconclusive: 178 µM [inhibitor, partial curve]	–
COc1ccc(-c2c(C#Cc3ccsc3)c3cc(-c4ccc5[nH]ccc5c4)ccc3n2C)cc1	inconclusive: 141 µM [inhibitor, partial curve, poor fit]	–
COC(=O)CSc1nc(C)c(C(=O)Nc2ccccc2C)c(-c2ccc(Cl)cc2)c1C#N	inconclusive: 79.4 µM [inhibitor, single point]	–
COc1ccc(/C(C)=N/OCC(=O)N=Nc2c(O)[nH]c3ccccc23)cc1	inconclusive: 20 µM [inhibitor, single point]	–
COC(=O)c1sc(N2C(=O)C(O)=C(C(=O)c3ccc(C)o3)C2c2cccs2)nc1C (stereo not given)	inconclusive: 100 µM [inhibitor, single point]	–
COC(=O)c1cc(OC)c(OC)cc1NC(=S)Nc1cccc(Cl)c1	–	inactive: -0.939%
CC(=O)N1N=C(c2ccc(Br)cc2)CC1c1cn(C)c2ccccc12 (stereo not given)	inconclusive: 158 µM [inhibitor, partial curve, poor fit]	–
COc1ccccc1NS(=O)(=O)c1cc(N2Cc3ccccc3C2=N)ccc1N1CCOCC1	–	inactive: -1.93%
Cc1cc(-c2ccccc2)n2nc(N)nc2n1	inconclusive: 14.1 µM [inhibitor, single point]	–

The list continues:

Compound	Potency	activity, negative = inhibition
CN(NC1OC(=O)c2ccccc21)c1ccccc1[N+](=O)[O-] (stereo not given)	inconclusive: 100 µM [inhibitor, single point]	–
CC(C)CN1CCNC(=O)C1CC(=O)NCCc1ccc(C(F)(F)F)cc1 (stereo not given)	active: 31.6 µM	–
Cc1cc(NC(=O)CCC(=O)N(CC(=O)NC2CCCC2)c2ccc(Cl)c(Cl)c2)no1	inconclusive: 28.2 µM [inhibitor, single point]	–
Cc1cc(C)n(CC(O)Cn2c3ccccc3c3ccccc32)n1 (stereo not given)	inconclusive: 22.4 µM [inhibitor, single point]	–
CC1=CC(C)=Nc2ccc(C)cc2N1	inactive	–
Nc1nonc1-c1nc2ccccc2n1CC(=O)NC1CCCC1	inconclusive: 11.2 µM [inhibitor, single point]	–
CCOc1ccc(N2C(=O)S/C(=C\c3ccc(O)c(OCC)c3)C2=O)cc1	–	inactive: -3.11%
CC(c1ccccc1)n1c(-c2cccs2)nc2c(c(=O)c3ccccc3n2C)c1=O (stereo not given)	inconclusive: 89.1 µM [inhibitor, single point]	–
O=[N+]([O-])c1ccc2nc(N3CCCC3)sc2c1	–	inactive: -0.562%
Cc1cccc(-n2c(O)c(C=Nc3ccccc3O)c3ccccc3c2=O)n1	–	inactive: 1.05%
COc1ccc(Cl)cc1S(=O)(=O)N1CCN(C(=O)c2ccco2)CC1	–	inactive: 1.9%
O=S(=O)(NCc1cccs1)c1ccc(Br)cc1	inconclusive: 22.4 µM [inhibitor, single point]	–
CCN(CC)C(=O)c1ccccc1NS(C)(=O)=O	inconclusive: 7.94 µM [inhibitor, single point]	–
Cc1ccc(OCCC(=O)OCC(=O)NNC(=O)c2ccccc2)cc1	–	inactive: -0.348%
Cc1ccc(S(=O)(=O)NCc2ccccc2)cc1C(=O)N(C)Cc1ccc(F)cc1	–	inactive: 0.276%
COCCCNC(=O)CN(CCc1ccccc1)S(=O)(=O)c1ccc(OC)cc1	inconclusive: 39.8 µM [inhibitor, single point]	–
O=C(CSc1nnc(-c2ccc(F)cc2)o1)N1CCCC1	inconclusive: 6.31 µM [inhibitor, single point]	–
COc1ccc(CC(=O)OC2CCCN(C)C2)cc1 (stereo not given)	inconclusive: 100 µM [inhibitor, single point]	–
Cc1cccc(C)c1NC(=O)C(=O)c1cn(C)c2ccccc12	active: 56.2 µM	–
Cc1ccc(-c2csc3nc4c5ccccc5c(NCCCN5CCOCC5)nn4c(=O)c23)cc1	inconclusive: 70.8 µM [inhibitor, single point]	–
CCOC(=O)C1CCCN(CCc2ccccc2)C1 (stereo not given)	–	inactive: 0.973%
COCc1c(C(=O)OCc2c(C)noc2C)oc2ccccc12	inconclusive: 22.4 µM [inhibitor, single point]	–
Cc1cccc(CSc2nnc(N)n2-c2ccccc2)c1	inconclusive: 100 µM [inhibitor, single point]	–
Cc1cccc2cc(C#N)c(SCC(=O)NCC3CCCO3)nc12 (stereo not given)	inconclusive: 63.1 µM [inhibitor, single point]	–

Compound	Potency	activity, negative = inhibition
CC(=O)Oc1ccc(N(C(C)=O)S(=O)(=O)c2ccc(C)cc2C)c2ccccc12	–	inactive: 0.305%
CC(=O)c1ccc(N2CCN(C(=O)CNS(=O)(=O)c3ccc4c(c3)OCCCO4)CC2)c(F)c1	inconclusive: 100 µM [inhibitor, partial curve, poor fit]	–
CCC(Sc1nc(C)cc(C)n1)C(=O)Nc1cc(C)on1 (stereo not given)	inconclusive: 20 µM [inhibitor, single point]	–
Nc1c(-c2ccccc2)sc2ccc3ccccc3[n+]12	inconclusive: 70.8 µM [inhibitor, partial curve, poor fit]	–
NC(=O)NC(=O)CSc1nnc(-c2ccc(Cl)cc2)n1CC1CCCO1 (stereo not given)	–	inactive: -1.28%
CS(=O)(=O)c1ccc(-c2csc(N3CCC(C(N)=O)CC3)n2)cc1	inconclusive: 200 µM [inhibitor, partial curve, poor fit]	–
Nc1nc(SCC(=O)Nc2ccc(Cl)c([N+](=O)[O-])c2)n[nH]1	inconclusive: 100 µM [inhibitor, single point]	–
O=C(Nc1cccc(S(=O)(=O)N2CCCCC2)c1)C1CCCC1	inconclusive: 12.6 µM [inhibitor, single point]	–
CC(=O)OCP(C)(=O)COC(C)=O	–	inactive: 0.888%
CC(C)C(=O)NC(c1ccco1)c1c(O)ccc2ccccc12 (stereo not given)	inconclusive: 15.8 µM [inhibitor, single point]	–
O=C1N/C(=C/c2cccn2-c2ccccc2)C(=O)N1c1cccc(Cl)c1	inconclusive: 70.8 µM [inhibitor, single point]	–
CN(C)N1C(N)=C(C#N)C(c2ccccc2)C2=C1CC(C)(C)CC2=O (stereo not given)	inconclusive: 56.2 µM [inhibitor, single point]	–
O=C(OCn1ncc(Br)c(Br)c1=O)c1c(F)cccc1F	inconclusive: 50.1 µM [inhibitor, partial curve, poor fit]	–
Clc1ccccc1-c1nc2ccccc2c2nncn12	–	inactive: -0.492%
CCOC(=O)c1c(-c2cccs2)csc1NC(=O)CN1CCOCC1	inconclusive: 708 µM [inhibitor, partial curve, poor fit]	–
c1ccc(-c2cc3n(c2)CCc2ccccc2-3)cc1	–	inactive: 0.918%
CCCCn1c(N)c(N(CC)C(=O)CCNC(=O)c2ccc(Cl)cc2)c(=O)[nH]c1=O	–	inactive: -24.7%
COc1ccc(-n2c(=O)c3c4c(sc3n(CC(N)=O)c2=O)CCCCC4)cc1	inconclusive: 22.4 µM [inhibitor, single point]	–
COc1ccc(NS(=O)(=O)c2ccc(N3CCCC3)c(NC(=S)Nc3cccc(S(=O)(=O)N(C)C)c3)c2)cc1	inconclusive: 28.2 µM [inhibitor, single point]	–
COc1ccc(-n2cc(-c3ccccc3)[nH]c2=S)cc1	inconclusive: 251 µM [inhibitor, partial curve, poor fit]	–
CCC1(c2ccc(F)cc2)NC(=O)N(CC(=O)Nc2ccc(-c3nc4ccc(C)cc4s3)cc2)C1=O (stereo not given)	inconclusive: 316 µM [inhibitor, partial curve, poor fit]	–
O=C(Nn1c(-c2ccc(Br)cc2)nc2ccccc2c1=O)c1cccnc1	inconclusive: 14.1 µM [inhibitor, single point]	–
